Results as given in publication PMC5309696.
No constants are given. Whether binding was seen depends on the method and setting. In cells and extracts the contact can be indirect. Some results given as binding are weak or reduced against the parent protein; the word gives no strength.

Chains of the proteins cited; added tags and fusions are not shown.
UniProt O08586: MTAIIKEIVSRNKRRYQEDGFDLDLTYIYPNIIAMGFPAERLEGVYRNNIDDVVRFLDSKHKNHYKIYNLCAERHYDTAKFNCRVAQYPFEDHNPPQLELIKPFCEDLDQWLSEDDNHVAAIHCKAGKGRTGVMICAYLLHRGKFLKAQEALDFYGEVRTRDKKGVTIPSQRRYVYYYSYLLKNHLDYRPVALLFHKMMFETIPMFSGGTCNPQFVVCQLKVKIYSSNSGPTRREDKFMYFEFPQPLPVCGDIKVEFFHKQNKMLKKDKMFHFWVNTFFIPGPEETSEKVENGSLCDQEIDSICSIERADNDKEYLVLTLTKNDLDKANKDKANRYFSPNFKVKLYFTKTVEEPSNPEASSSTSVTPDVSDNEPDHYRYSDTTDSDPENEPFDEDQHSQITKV

Columns and labels:
[1] = biological target: PTEN (endogenous) (mouse (endogenous in BAT and brown adipocytes)) (UniProt O08586); assay: co-IP; endogenous co-IP of Mib2 and PTEN in wild-type or DJ-1 KO brown adipocytes
[2] = biological target: T1, DJ-1 (endogenous, brown adipose tissue) (mouse (endogenous in BAT)) (UniProt Q99LX0); assay: co-IP; lysates of BAT immunoprecipitated with DJ-1 antibody, immunoblotted with PTEN or Mib2 antibody; IP buffer 50 mM Hepes pH 7.9, 150 mM NaCl, 1% Triton-100, 4 °C
T1 sequence: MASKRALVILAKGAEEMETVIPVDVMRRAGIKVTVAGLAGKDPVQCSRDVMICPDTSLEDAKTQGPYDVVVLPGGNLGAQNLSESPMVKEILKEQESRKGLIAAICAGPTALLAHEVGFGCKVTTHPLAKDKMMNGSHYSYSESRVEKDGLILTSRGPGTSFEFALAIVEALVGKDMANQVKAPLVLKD

B1: mind bomb-2 (Mib2) (endogenous) (protein, UniProt Q8R516 1-973)
chain: MDLDPHAGVQVGMRVVRGMDWKWGQQDGGEGGVGTVVELGRHGSPSTPDRTVVVQWDQGTRTNYRAGYQGAHDLLLYDNAQIGIRHPNIICDCCKKHGLRGMRWKCRVCFDYDLCTQCYMHNKHDLTHAFERYETSHSRPVTLSPRQGLPRIPLRGIFQGAKVVRGPDWEWGSQDGGEGKTGRVVDIRGWDVETGRSVASVTWADGTTNVYRVGHKGKVDLRCVGEAAGGFYYKEHLPKLGKPAELQRRVSADGQPFQRGDKVKCLLDTDVLRDMQEGHGGWNPRMAEFIGQMGTVHRITDRGDVRVQFNHETRWTFHPGALTKHNSFWVGDVVRVIGDLDTVKRLQAGHGEWTDDMAPALGRVGKVVKVFGDGNLRVAVGGQRWTFSPSCLVAYRPEEDANLDVAERARENKSAASVSVAGSLSVALDKLRTQKSDPEHPGRLVVEAALGNVARALDLLRRHPEQASYHPALVVDTKNQGRTALQVAAYLGQVELVRLLLQARASMDLPDDEGNTVLHYTAMGNQPEATRVLLSAGCAVDARNGTRSTALHVAVQRGFLEVVKILCERGCDVNLPDAHADTPLHSAISAGAGASSIVEVLTEVPGIDVTATNSQGFTLLHHASLKGHVLAVRKILARARQLVDAKKEDGFTALHLAALNNHREVAQVLIREGRCDVNVRNRKLQSPLHLAVQQAHLGLVPLLVDAGCSVNTEDEEGDTALHVALQRHQLLPLVADRAGGDPGPLQLLSRLQASGLPGCTELTVGAAVACFLALEGADVSYANHRGRSPLDLATEGRVLKALQGCAQRFRERQAGGGGGVPPGPRHVLSTPNTVTNLHVSGTAGPEAAECLVCSELALLILFSPCQHRTVCEECARRMKKCIRCQVVISKKLRPDGSEVVNAIQVPGPPRQLVEELQSRYRQMEERITCPICIDSHIRLVFQCGHGACAPCGAALNACPICRQPIRDRIQIFV
Q: Which binding [1] does the source give for B1 here?
A: binds

Q: What about the binding [2] of the same binder?
A: binds
